Reference: PubChem BioAssay (EPA / NIEHS)
“And” between values parts separate entries of the source, which are not always exact repeats. Equal values may be shown once. The shares of active, inactive and inconclusive entries below differ from those in the screen. Where the call is inconclusive, the potency comes from a doubtful curve fit. The source made the active and inactive calls. Rule for the calls: active = hit-call score of the fitted dose curve at least 0.9, where 1 is the maximum; inconclusive = response in the unintended direction; inactive = score below 0.9.

Chains of the proteins cited; added tags and fusions are not shown. Lines headed by an entry give the natural chain unless they say otherwise; changes in a name come on top.
UniProt Q13133, whole entry, looked up: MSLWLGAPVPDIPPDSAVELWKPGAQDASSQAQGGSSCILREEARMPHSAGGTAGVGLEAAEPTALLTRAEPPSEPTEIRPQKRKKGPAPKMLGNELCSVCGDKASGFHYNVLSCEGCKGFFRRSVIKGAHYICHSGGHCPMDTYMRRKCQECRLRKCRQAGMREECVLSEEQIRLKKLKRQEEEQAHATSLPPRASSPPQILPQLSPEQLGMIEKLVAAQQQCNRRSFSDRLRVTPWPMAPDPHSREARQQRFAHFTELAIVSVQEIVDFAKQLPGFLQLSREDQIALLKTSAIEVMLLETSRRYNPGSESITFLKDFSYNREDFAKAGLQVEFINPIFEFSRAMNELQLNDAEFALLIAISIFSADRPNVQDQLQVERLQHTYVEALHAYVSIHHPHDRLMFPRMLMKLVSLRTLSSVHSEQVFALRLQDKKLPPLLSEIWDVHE
UniProt P55055, whole entry, looked up: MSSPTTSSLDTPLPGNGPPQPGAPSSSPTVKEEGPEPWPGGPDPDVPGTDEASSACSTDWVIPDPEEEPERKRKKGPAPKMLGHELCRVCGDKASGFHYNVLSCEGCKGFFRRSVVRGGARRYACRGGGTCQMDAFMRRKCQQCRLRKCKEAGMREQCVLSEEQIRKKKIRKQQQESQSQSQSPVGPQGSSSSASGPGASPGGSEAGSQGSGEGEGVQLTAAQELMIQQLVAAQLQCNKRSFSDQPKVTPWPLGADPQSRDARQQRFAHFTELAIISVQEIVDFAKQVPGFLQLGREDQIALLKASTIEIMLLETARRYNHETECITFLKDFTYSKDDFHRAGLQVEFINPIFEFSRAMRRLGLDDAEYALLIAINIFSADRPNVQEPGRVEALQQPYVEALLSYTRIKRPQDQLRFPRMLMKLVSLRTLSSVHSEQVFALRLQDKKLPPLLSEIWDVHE
UniProt P41235: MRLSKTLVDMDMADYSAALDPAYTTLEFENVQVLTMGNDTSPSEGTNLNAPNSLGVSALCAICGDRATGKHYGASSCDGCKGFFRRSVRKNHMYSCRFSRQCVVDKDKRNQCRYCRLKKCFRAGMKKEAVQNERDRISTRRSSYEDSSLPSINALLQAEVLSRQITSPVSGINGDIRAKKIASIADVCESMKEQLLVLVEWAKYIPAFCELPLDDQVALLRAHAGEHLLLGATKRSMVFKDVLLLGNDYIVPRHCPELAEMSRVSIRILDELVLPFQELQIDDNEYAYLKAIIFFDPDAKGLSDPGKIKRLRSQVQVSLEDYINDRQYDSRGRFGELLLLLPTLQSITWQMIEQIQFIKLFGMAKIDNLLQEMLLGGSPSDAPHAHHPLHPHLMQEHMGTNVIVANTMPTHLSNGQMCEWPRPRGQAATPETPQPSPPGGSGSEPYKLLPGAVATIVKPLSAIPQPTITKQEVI
UniProt Q07869: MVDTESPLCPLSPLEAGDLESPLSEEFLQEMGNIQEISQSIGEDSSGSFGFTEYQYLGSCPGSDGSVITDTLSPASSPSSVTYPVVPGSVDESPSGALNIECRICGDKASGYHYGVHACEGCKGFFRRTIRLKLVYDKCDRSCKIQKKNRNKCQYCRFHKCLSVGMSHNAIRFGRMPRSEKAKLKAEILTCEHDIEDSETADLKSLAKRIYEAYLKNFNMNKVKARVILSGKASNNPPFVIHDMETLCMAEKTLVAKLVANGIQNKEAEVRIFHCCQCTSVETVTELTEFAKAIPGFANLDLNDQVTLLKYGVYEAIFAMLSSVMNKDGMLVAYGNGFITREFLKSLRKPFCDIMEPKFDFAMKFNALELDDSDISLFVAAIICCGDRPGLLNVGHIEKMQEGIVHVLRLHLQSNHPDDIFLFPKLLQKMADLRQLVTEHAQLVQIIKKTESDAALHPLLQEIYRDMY
UniProt P10826, whole entry, looked up: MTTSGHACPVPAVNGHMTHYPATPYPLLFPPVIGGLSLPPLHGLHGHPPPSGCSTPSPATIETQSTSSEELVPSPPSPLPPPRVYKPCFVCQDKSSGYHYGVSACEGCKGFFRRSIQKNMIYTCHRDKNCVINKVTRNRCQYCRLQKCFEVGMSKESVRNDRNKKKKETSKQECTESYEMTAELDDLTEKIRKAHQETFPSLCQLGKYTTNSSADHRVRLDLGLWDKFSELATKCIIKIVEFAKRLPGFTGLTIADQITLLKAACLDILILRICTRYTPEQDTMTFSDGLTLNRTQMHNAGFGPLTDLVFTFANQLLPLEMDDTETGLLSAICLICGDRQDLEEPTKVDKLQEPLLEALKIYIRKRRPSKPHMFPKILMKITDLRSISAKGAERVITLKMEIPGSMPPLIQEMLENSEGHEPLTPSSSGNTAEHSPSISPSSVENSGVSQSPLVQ
UniProt P10276, whole entry, looked up: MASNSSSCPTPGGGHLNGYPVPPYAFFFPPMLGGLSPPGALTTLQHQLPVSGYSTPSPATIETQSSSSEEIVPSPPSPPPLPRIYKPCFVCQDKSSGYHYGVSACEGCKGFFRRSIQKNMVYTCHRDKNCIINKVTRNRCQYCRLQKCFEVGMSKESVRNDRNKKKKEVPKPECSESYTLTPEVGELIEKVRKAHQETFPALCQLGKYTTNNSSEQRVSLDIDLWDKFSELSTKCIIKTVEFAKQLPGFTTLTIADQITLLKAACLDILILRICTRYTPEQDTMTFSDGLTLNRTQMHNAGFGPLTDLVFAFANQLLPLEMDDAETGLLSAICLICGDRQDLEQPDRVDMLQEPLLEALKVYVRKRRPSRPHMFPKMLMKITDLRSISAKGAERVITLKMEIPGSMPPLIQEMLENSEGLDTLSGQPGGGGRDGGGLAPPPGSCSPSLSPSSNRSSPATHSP
UniProt P13631, whole entry, looked up: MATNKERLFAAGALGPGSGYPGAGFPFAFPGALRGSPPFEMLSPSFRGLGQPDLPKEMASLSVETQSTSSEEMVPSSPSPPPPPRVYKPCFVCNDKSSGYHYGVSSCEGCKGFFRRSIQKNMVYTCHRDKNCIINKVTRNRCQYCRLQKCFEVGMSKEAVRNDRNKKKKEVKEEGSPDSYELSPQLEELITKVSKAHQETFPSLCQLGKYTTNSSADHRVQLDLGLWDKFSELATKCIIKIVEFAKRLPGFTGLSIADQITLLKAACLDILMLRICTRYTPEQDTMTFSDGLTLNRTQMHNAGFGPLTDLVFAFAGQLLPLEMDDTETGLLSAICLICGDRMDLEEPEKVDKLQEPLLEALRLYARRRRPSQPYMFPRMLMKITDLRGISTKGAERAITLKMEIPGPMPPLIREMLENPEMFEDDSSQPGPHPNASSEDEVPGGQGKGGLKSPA
UniProt Q92753: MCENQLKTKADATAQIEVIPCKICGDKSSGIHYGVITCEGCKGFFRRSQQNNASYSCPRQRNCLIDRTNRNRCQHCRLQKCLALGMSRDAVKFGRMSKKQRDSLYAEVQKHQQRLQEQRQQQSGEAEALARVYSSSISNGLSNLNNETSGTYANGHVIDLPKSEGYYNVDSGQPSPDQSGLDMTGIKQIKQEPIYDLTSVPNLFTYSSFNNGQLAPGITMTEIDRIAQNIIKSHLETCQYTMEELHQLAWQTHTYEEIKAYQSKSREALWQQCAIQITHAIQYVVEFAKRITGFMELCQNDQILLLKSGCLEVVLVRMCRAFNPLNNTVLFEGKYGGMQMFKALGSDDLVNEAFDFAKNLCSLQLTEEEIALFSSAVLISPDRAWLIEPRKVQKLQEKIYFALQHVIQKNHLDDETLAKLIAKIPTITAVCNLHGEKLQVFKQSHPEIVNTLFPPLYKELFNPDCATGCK
UniProt P51449: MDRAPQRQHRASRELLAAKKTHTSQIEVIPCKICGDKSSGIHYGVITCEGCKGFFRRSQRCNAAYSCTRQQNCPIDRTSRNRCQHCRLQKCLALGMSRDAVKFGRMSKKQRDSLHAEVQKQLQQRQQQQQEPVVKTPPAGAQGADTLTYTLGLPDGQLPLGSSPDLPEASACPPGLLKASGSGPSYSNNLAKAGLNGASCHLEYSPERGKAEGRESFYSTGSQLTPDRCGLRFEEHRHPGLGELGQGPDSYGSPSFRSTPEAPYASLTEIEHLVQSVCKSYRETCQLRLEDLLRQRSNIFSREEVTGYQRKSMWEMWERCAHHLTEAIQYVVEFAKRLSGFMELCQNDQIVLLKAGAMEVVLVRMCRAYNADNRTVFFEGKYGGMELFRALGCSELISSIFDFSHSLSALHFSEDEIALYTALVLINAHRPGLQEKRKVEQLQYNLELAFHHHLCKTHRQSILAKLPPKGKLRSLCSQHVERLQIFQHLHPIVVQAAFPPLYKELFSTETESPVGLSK
UniProt P28702: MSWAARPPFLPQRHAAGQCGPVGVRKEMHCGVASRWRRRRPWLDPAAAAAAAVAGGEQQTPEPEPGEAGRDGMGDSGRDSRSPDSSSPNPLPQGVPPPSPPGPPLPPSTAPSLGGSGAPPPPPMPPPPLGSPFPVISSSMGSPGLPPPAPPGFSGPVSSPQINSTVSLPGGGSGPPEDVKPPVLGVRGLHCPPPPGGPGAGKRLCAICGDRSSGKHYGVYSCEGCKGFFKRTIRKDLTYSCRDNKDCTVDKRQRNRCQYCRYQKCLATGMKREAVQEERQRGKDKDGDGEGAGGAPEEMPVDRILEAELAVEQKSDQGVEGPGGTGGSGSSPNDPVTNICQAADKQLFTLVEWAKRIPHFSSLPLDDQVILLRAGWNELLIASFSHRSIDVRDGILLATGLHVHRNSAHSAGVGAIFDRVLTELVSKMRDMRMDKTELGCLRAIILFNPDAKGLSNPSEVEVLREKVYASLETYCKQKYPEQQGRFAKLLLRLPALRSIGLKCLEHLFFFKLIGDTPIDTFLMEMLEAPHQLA
UniProt P10827: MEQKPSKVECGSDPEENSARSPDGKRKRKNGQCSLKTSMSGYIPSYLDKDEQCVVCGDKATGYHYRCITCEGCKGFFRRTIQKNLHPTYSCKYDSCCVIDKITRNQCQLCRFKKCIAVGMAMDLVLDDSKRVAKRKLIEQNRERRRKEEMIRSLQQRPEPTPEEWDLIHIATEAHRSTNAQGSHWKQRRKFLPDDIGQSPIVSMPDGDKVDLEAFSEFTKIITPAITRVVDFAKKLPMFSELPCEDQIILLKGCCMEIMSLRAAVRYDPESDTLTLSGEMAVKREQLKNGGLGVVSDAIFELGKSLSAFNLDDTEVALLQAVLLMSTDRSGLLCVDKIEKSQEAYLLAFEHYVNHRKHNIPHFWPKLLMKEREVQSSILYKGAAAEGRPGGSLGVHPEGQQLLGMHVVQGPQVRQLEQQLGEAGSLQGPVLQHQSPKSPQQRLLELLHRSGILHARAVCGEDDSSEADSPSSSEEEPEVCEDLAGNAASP
UniProt P43354, whole entry, looked up: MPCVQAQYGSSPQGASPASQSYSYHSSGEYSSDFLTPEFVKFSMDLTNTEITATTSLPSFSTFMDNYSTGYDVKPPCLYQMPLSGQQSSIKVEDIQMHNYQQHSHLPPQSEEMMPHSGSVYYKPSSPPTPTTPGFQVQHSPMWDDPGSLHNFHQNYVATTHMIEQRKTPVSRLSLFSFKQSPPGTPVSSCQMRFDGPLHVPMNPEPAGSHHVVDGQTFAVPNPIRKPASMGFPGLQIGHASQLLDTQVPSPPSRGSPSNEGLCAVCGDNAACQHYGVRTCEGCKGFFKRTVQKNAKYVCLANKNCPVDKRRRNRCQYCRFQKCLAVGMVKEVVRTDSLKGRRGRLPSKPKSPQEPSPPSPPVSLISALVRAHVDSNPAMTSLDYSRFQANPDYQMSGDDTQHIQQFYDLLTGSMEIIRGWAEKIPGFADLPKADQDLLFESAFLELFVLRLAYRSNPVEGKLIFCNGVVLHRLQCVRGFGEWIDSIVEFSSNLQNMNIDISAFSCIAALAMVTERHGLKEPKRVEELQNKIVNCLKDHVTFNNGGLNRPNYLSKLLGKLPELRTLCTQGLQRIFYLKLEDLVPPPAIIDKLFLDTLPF
UniProt P37231: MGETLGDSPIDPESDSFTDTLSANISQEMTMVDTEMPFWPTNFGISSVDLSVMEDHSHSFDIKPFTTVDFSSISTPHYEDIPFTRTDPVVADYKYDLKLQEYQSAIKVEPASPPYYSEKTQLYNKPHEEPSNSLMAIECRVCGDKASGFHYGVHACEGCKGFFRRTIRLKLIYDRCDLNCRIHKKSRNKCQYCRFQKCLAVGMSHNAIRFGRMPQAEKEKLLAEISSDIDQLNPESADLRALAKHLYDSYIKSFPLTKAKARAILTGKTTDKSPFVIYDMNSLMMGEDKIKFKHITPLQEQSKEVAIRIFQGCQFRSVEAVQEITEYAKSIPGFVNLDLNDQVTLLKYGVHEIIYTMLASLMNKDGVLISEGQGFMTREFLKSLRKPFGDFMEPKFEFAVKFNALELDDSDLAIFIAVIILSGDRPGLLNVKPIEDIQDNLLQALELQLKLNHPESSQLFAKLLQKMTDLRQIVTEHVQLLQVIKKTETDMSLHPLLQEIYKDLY

How the values were obtained:
[1] = ATG_M_19_TRANS: Attagene TRANS-FACTORIAL HepG2 Assay for M19 Transcription Factor (Internal Marker) (AID 2282974); conditions: HepG2 Attagene TRANS-FACTORIAL M19 internal marker reporter
Method in brief: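 Using RT-PCR and capillary electrophoresis, reporter mRNA from transiently transfected human HepG2 cells was quantified following 24 h exposure; activity was fitted in the positive direction against DMSO.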

[2] = ATG_GAL4_TRANS: Attagene TRANS-FACTORIAL HepG2 Assay for GAL4 (Internal Marker) (AID 2282976); conditions: HepG2 Attagene TRANS GAL4 internal marker reporter
Method in brief: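 Liver HepG2 line bearing multiplexed GAL4-UAS reporter constructs; 24 h chemical treatment. Transcripts were quantified as fluorescent fragments on capillary electrophoresis after RT-PCR and HpaI cut, with activity fitted upward from DMSO.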

[3] = biological target: Oxysterols receptor LXR-alpha (Homo sapiens) (UniProt Q13133); test: ATG_LXRa_TRANS: Attagene TRANS-FACTORIAL HepG2 Assay for human Liver X Receptor alpha (LXRa) (AID 2282980); conditions: HepG2 Attagene TRANS reporter, LXRa transactivation
Method in brief: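 In this multiplexed TRANS system, compounds act on HepG2 cells carrying GAL4-UAS reporter units and a receptor-GAL4 fusion for 24 h. Induced reporter RNA is amplified, fluorescently labelled and sized by capillary electrophoresis, with DMSO as baseline.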

[4] = biological target: Oxysterols receptor LXR-beta (Homo sapiens) (UniProt P55055); test: ATG_LXRb_TRANS: Attagene TRANS-FACTORIAL HepG2 Assay for human Liver X Receptor beta (LXRb) (AID 2282981); conditions: HepG2 Attagene TRANS GAL4-LXRb reporter, mRNA
Method in brief: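 In this TRANS format, exogenous chimeric NR-Gal4 protein activity, not endogenous factors, drives reporter expression in transfected human HepG2 cells. Exposure lasted 24 h; reporter mRNA was read by fluorescent capillary electrophoresis.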

[5] = biological target: Hepatocyte nuclear factor 4-alpha (Homo sapiens) (UniProt P41235); test: ATG_HNF4a_TRANS: Attagene TRANS-FACTORIAL HepG2 Assay for human Hepatocyte Nuclear Factor 4 alpha (HNF4a) (AID 2282982); conditions: HepG2 HNF4a transactivation reporter, mRNA readout
Method in brief: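 Cells used were human HepG2, transiently carrying GAL4-UAS reporter units read out against exogenous NR-GAL4 chimeras. Reporter transcript levels after 24 h dosing were quantified by fluorescent RT-PCR and capillary electrophoresis.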

[6] = biological target: human Peroxisome Proliferator-activated Receptor alpha (PPARa), PPARA (gene 5465) (UniProt Q07869); test: ATG_PPARa_TRANS: Attagene TRANS-FACTORIAL HepG2 Assay for human Peroxisome Proliferator-activated Receptor alpha (PPARa) (AID 2283001);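 for AC50: potency for gain of reporter signal over DMSO so agonist or activator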
Method in brief: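 Gain-of-signal endpoint: reporter mRNA induction relative to DMSO, detected by fluorescent RT-PCR and capillary electrophoresis. HepG2 cells transiently carried GAL4-UAS-driven reporter units plus NR-Gal4 fusion; exposure lasted 24 h.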

[7] = biological target: human Retinoic Acid Receptor beta (RARb), RARB (gene 5915) (UniProt P10826); test: ATG_RARb_TRANS: Attagene TRANS-FACTORIAL HepG2 Assay for human Retinoic Acid Receptor beta (AID 2283004)
Method in brief: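 Fluorescent capillary-electrophoresis detection of GAL4-UAS reporter mRNA defines the endpoint, with induction over DMSO-treated wells scored as activity. Transiently transfected human hepatoma HepG2 cells expressing exogenous NR–Gal4 proteins are exposed to test chemicals for 24 h.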

[8] = biological target: Retinoic acid receptor alpha (Homo sapiens) (UniProt P10276); test: ATG_RARa_TRANS: Attagene TRANS-FACTORIAL HepG2 Assay for human Retinoic Acid Receptor alpha (RARa) (AID 2283005);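 for AC50: potency for increased reporter signal meaning RARa activation over DMSO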
Method in brief: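 HepG2 cells transiently transfected with multiple reporter units expressing chimeric RARα-GAL4 fusion, with GAL4-UAS-driven reporters. After 24 h compound exposure, reporter mRNA induction quantified by RT-PCR and capillary electrophoresis with fluorescent labeling; gain-of-signal fitted relative to DMSO control.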

[9] = biological target: human Retinoic Acid Receptor gamma (RARg), RARG (gene 5916) (UniProt P13631); test: ATG_RARg_TRANS: Attagene TRANS-FACTORIAL HepG2 Assay for human Retinoic Acid Receptor gamma (RARg) (AID 2283009);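 for AC50: AC50 is for reporter induction above DMSO meaning RARg activation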
Method in brief: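 Transient transfection of HepG2 with multi-reporter constructs, then 24 h chemical treatment. Total RNA isolated, reverse-transcribed, PCR-amplified, fluorescently labelled and resolved by capillary electrophoresis; activity scored as mRNA induction versus DMSO.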

[10] = biological target: human RAR-related Orphan Receptor beta (RORb), RORB (gene 6096) (UniProt Q92753); test: ATG_RORb_TRANS: Attagene TRANS-FACTORIAL HepG2 Assay for human RAR-related Orphan Receptor beta (RORb) (AID 2283010);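 for AC50: potency for increased reporter mRNA meaning activation of RORb-Gal4 chimera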
Method in brief: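 Readout is reporter-gene mRNA induction, detected as fluorescence after RT-PCR and capillary electrophoresis, fitted for gain of signal against DMSO controls. Transiently transfected HepG2 liver cells carrying GAL4-UAS reporter constructs were treated for 24 hours.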

[11] = biological target: human RAR-related Orphan Receptor gamma (RORg), RORC (gene 6097) (UniProt P51449); test: ATG_RORg_TRANS: Attagene TRANS-FACTORIAL HepG2 Assay for human RAR-related Orphan Receptor gamma (RORg) (AID 2283011);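 for AC50: potency for induction of reporter transcripts above DMSO so activators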
Method in brief: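 Chimeric RORg-Gal4 transactivation in transfected HepG2; 24 h exposure; RT-PCR/capillary electrophoresis readout of reporter mRNA, DMSO baseline.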

[12] = biological target: human Retinoid X Receptor beta (RXRb), RXRB (gene 6257) (UniProt P28702); test: ATG_RXRb_TRANS: Attagene TRANS-FACTORIAL HepG2 Assay for human Retinoid X Receptor beta (RXRb) (AID 2283013)
Method in brief: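 Transfect HepG2 with GAL4-UAS multi-reporter constructs (chimeric NR-Gal4, TRANS format); dose compound 24 h; isolate RNA, RT-PCR, FAM primer extension, HpaI digest; quantify by capillary electrophoresis; positive direction vs DMSO.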

[13] = biological target: human Thyroid Receptor alpha (THRa1), THRA (gene 7067) (UniProt P10827); test: ATG_THRa1_TRANS: Attagene TRANS-FACTORIAL HepG2 Assay for human Thyroid Receptor alpha (THRa1) (AID 2283014)
Method in brief: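 Measured here is mRNA from a GAL4-UAS reporter in transfected HepG2 cells carrying a Gal4-fused receptor, 24 h post-dose. DMSO served as negative control and baseline.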

[14] = TOX21_p53_BLA_p2_viability: Viability Assessment in the Tox21 HCT-116 p53 Agonism Beta-lactamase Assay, Phase 2 (AID 2283591);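 note: compound exposure lasted 16 h at 37 °C; actives lower the ATP signal meaning cytotoxicity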
Method in brief: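 HCT-116 p53-bla cells (4000/well) rested 5 h at 37C, then received compounds in DMSO (217-fold dilution) for 16 h at 37C, 5% CO2. After the CCF4 read, CellTiter-Glo was added; ATP luminescence was read after 30 min at room temperature.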

[15] = TOX21_p53_BLA_p3_viability: Viability Assessment in the Tox21 HCT-116 p53 Agonism Beta-lactamase Assay, Phase 3 (AID 2283593);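 note: cells exposed to compound for 16 h before reading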
Method in brief: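 HCT-116 cells (4000/well) rested 5 h at 37C, then got DMSO compounds by pin tool (217-fold dilution) for 16 h at 37C, 5% CO2. After the bla read, CellTiter-Glo was added and luminescence read at 30 min, room temperature.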

[16] = TOX21_p53_BLA_p4_viability: Viability Assessment in the Tox21 HCT-116 p53 Agonism Beta-lactamase Assay, Phase 4 (AID 2283597);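 note: hits lower the luminescence signal meaning cytotoxicity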
Method in brief: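 Luminescent ATP readout (CellTiter-Glo, 30 min, room temperature) in the same wells as the p53 bla ratio. HCT116 cells were treated for 16 h at 37C with DMSO-dissolved compounds.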

[17] = TOX21_p53_BLA_p5_viability: Viability Assessment in the Tox21 HCT-116 p53 Agonism Beta-lactamase Assay, Phase 5 (AID 2283600)
Method in brief: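 Seeded cells (4000/well) settle 5 h before compound addition. Plates then incubate 16 h at 37C, receive FRET substrate for 2 h, and finally CellTiter-Glo, with luminescence measured after a 30 min room-temperature incubation.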

[18] = ACEA_ER_AUC_viability: ACEA Biosciences xCELLigence Real-Time Cell Analysis on Estrogen Receptor Agonism for Viability (AID 2283782);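 note: continuous compound exposure with impedance area under curve over 80 h; hit means loss of impedance signal meaning reduced cell growth or viability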
Method in brief: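 T-47D human breast cells in phenol red-free RPMI1640 with 10% charcoal-stripped FBS were dosed with an 8-point 1:4 dilution series from 100 uM top final concentration, in duplicate. Impedance-based growth was followed for 80 h; AUC analysed versus DMSO.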

[19] = biological target: Nuclear receptor subfamily 4 group A member 2 (Homo sapiens) (UniProt P43354); test: ATG_NURR1_TRANS: Attagene TRANS-FACTORIAL HepG2 Assay for human Nuclear Receptor Related Protein 1 (NURR1) (AID 2282985); conditions: HepG2 Attagene TRANS reporter, mRNA readout
Method in brief: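 After 24 h chemical dosing, total RNA from transiently transfected HepG2 cells was reverse-transcribed and reporter cDNA PCR-amplified, FAM-labelled and analysed by capillary electrophoresis. Activity fitted in positive direction, DMSO as negative control.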

[20] = biological target: Peroxisome proliferator-activated receptor gamma (Homo sapiens) (UniProt P37231); test: ATG_PPARg_TRANS: Attagene TRANS-FACTORIAL HepG2 Assay for human Peroxisome Proliferator-activated Receptor-gamma (PPARg) (AID 2283007)
Method in brief: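 Endpoint reflects upward reporter mRNA change versus DMSO controls. Setup: transiently transfected HepG2, GAL4-UAS reporters driven by chimeric NR-Gal4, 24 h incubation, RT-PCR with capillary electrophoresis read-out.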

Measured: AC50

CC(C)c1cccc(C(C)C)c1NC(=O)NS(=O)(=O)c1cc(C(C)(C)O)co1
inconclusive: [1] 24.6 µM | [3] 100 µM | [8] 100 µM | [12] 26.5 µM | [13] 100 µM | [14] 46.1 µM | [15] 46.1 µM | [16] 46.1 µM | [17] 9.14 µM | [18] 50 µM
inactive: [2] | [4] | [5] | [6] | [7] | [9] | [10] | [11]

CC(C)(C)c1ccc(OC2CCCCC2O)cc1 (configuration not stated)
inactive: [3] | [7] | [8] | [10] | [12] | [18]
active: [19] 100 µM
inconclusive: [6] 100 µM | [9] 172 µM

CSCCC=O
inactive: [2] | [10] | [12] | [15]
inconclusive: [1] 100 µM | [4] 2.46 µM | [5] 100 µM | [19] 24.5 µM | [6] 100 µM | [7] 100 µM | [8] 100 µM | [9] 30.8 µM | [11] 517 nM | [14] 0.255 µM | [15] 46.1 µM | [16] 46.1 µM and 467 nM
active: [20] 56.3 µM | [18] 85.8 µM
